# Measured values: patent US8318489B2, “Prostacyclin directed differentiation of cardiomyocytes from human embryonic stem cells” (priority 2005, dated 2012)
# System: H3M11 cardiomyocytes
# Assay: Microelectrode array recording of selected cardiomyocytes
# Assay type: cell-based, human
# Details: 100 nM E-4031; from 350 ms before addition
# Description: H3M11, one of the transgenic hES lines carrying the mouse α-MHCneo transgene, was differentiated in END-2 conditioned media to induce cardiomyocytes and then selected with G418 for 1 week. G418-selected H3M11 cardiomyocytes were dissociated and plated on microelectrode array chips each containing 64 electrodes (Multi Channel Systems MCS GmbH, Reutlingen, Germany). Extracellular recordings were made with the MEA1060 amplifier and MC-Rack software. Sampling rate was 10 kHz. A control recording was made before addition of compounds. Isoproterenol and E-4031 (Sigma Aldrich) were dissolved in water and added to the MEA chamber and allowed to equilibrate for 10-30 min.
structure (smiles),measurement,value
Cc1cccc(CCN2CCC(C(=O)c3ccc(NS(C)(=O)=O)cc3)CC2)n1 [E-4031],QT interval,580 ms
